The values that follow come from publication PMC5996148.

The chains behind the UniProt entries cited, without tags or fusion partners. Where a name states a change or a piece, a line headed by the entry shows the natural chain unless it says otherwise.
UniProt P08034: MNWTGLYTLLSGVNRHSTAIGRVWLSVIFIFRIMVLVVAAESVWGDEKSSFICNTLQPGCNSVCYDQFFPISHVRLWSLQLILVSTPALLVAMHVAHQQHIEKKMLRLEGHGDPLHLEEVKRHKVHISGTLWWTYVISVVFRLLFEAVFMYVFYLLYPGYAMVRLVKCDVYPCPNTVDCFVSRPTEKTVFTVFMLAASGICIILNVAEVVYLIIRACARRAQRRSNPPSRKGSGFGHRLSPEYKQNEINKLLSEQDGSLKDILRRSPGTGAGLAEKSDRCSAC

Experiment in all cases: protein microarray (ProtoArray v5.0), streptavidin-Alexa Fluor 647
Conditions in all cases: 3'-biotin; 20 mM Tris (pH 7.5), 5 mM MgCl2, 100 mM KCl, 0.1% Tween-20, A/T-rich and random oligonucleotide blockers; temperature not stated; high values mean tight binding

Assay [1] deals with GIF (human).
The test system of assay [2] is GIMAP6 (human).
The subject of assay [3] is GIP (human).
Assay [4] relates to GIPC2 (human).
In assay [5] the test system is GIYD2 (human).
The target in assay [6] is GJB1 (UniProt P08034).
Assay [7] concerns GJB5 (human).
Assay [8] deals with GK3P (human).
The test system of assay [9] is GLO1 (human).
The target in assay [10] is T1, GLOD4 (UniProt Q9HC38).
T1 sequence: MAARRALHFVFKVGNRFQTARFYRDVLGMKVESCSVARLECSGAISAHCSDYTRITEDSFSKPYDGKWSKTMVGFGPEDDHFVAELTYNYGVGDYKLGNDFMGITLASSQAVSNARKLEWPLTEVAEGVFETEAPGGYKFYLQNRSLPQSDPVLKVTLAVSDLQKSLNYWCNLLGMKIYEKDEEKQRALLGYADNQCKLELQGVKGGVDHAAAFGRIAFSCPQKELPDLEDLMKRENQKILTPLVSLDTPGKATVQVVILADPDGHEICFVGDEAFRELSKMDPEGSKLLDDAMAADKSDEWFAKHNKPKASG

“And” between values parts separate entries of the source, which are not always exact repeats. Equal entries are not always repeated. The list shows a part of the results. For some of these results: Construct or isoform of the protein are uncertain.

“GGGAGGCTGAGGCAGG [G4-1 biotinylated (PQS2)]”: the binding signal was -0.336 z-score in assay [1]; -0.339 z-score in [2]; -0.287 z-score in assay [3]; -0.263 z-score in [4]; -0.273 z-score in [5]; -0.305 z-score in [6]. Also, the binding signal in [7] is -0.33 z-score; in [8] it was -0.242 z-score; in assay [9], -0.308 z-score and -0.278 z-score; in [10], -0.263 z-score.
